In US9567325B2, “Carboxamide compounds and their use as calpain inhibitors” (AbbVie Deutschland GmbH & Co. KG, priority 2009, dated 2017):
For at least one compound, name, drawing or mass did not settle the structure.

By UniProt entry, the sequences of proteins in these tests, tags left out. Residues count along the entry.
UniProt P25774, 115-331: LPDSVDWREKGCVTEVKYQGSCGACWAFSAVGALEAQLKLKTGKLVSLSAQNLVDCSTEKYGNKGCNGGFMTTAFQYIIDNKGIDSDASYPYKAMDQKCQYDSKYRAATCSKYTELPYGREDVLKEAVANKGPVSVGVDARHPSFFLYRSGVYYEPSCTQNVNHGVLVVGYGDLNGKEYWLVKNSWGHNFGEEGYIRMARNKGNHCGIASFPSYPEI
UniProt P07711, 114-333: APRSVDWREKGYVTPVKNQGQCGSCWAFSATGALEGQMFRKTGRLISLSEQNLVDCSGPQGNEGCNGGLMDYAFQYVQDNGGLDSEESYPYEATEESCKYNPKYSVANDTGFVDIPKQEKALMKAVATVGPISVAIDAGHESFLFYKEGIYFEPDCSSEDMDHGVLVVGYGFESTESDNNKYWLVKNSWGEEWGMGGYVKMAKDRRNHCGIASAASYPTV

How the values were obtained:
[1] = target: T1, recombinant human cathepsin S (Homo sapiens, UniProt P25774); test: Cathepsin S enzyme inhibition in vitro, kinetic fluorescence assay (selectivity vs calpain); type: biochemical; details: ratio of Ki values; Z-Val-Val-Arg-AMC substrate, pH 6.0
T1 construct: purchased Calbiochem 219343; host or cells: E. coli
Description: (§1) The following solutions and buffers were employed: • HBS (for 40 ml): 800 μl 1M HEPES; 2.16 ml 100 mM KCl; 4.8 ml 1M NaCl; 3.59 ml 5% glucose; 60 μl 1M MgSO4; 400 μl 100 mM Na pyruvate, 28.19 ml water; pH 7.2-7.5. • lysis buffer (for 20 ml): 400 μl 1M Tris pH 8.2; 2.74 ml 1M NaCl; 520 μl 0.5M EDTA; 2 ml 10% triton X-100; 0.8 ml (=1:25) CompletePlus (1 tablet/2 ml H2O); 200 μl 100 mM Pefabloc; 13.34 ml water, pH 8.2. • TBST (10×) (for 11): 100 mM Tris (12.1 g); 1.5M NaCl (87 g); 1% Tween 20 (10 g), adjusted to pH 8. I Enzyme Inhibition In Vitro: • Testing for blockade of the corresponding enzymic activities was carried out by means of kinetic fluorescence assays (excitation 390 nm, emission 460 nm). • Apparent Ki values were calculated from the experimentally determined IC50 values by the Cheng-Prussoff relation assuming a reversible competitive enzyme inhibition. The Km values of the substrates used under the assay conditions indicated above were: 90 μM (Z-Phe-Arg-AMC, cathepsin B), 10 μM (Z-Gly-Pro-Arg-AMC, cathepsin K), 2 μM (Z-Phe-Arg-AMC, cathepsin L), and 30 μM (Z-Val-Val-Arg-AMC, cathepsin S). • The indicated Ki values are averages of the inhibition constants calculated on the basis of 2 to 4 independent dose-effect plots. • The following assays were used: • 1. […]

[2] = target: T2, cathepsin L isolated from human liver (Homo sapiens, UniProt P07711); test: Cathepsin L enzyme inhibition in vitro, kinetic fluorescence assay (selectivity vs calpain); type: biochemical; details: ratio of Ki values; Z-Phe-Arg-AMC substrate, pH 6.0
T2 construct: 1 nM cathepsin L—isolated from human liver (Calbiochem #219402); purchased Calbiochem 219402; host or cells: human liver (natural source)
Description: as §1

CONC(=O)C(=O)C(Cc1ccccc1)NC(=O)c1cccnc1-c1csc(-c2ccccc2)n1 (centres unmarked) [Example 14, N-(4-(Methoxyamino)-3,4-dioxo-1-phenylbutan-2-yl)-2-(2-phenylthiazol-4-yl)nicotinamide]
Sel cat. S (Ki(cathepsin S)/Ki(calpain) ratio) [1]: ++ (++ means a Ki(cathepsin S)/Ki(calpain) ratio of ≧100)
Sel cat. L (Ki(cathepsin L)/Ki(calpain) ratio) [2]: ++ (++ means a Ki(cathepsin L)/Ki(calpain) ratio of ≧50)
